Test results as given in publication doi:10.1101/137844.
Results are given in words; binding and its absence hold for the method and conditions named. In cells and extracts the contact can be indirect. Here binding means that the protein was enriched with, or labelled near, the bait; the list need not be complete. Where a sequence is shown, tags or fusion partners need not be part of it.

T1: RCD1 GFP:WWE-linker fusion protein (from Arabidopsis) (Arabidopsis) (UniProt Q8RY59)
T1 sequence (chain, WWE-linker region found phosphorylated (Fig. S3; Table S5)): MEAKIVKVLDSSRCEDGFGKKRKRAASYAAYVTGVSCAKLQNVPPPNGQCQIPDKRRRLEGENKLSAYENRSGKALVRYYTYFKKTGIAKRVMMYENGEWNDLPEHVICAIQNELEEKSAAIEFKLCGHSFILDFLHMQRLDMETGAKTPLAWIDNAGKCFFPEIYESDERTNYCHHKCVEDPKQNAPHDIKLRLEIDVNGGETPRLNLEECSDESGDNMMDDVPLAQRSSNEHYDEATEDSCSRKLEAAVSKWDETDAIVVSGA

B1: SRO1 (endogenous, Arabidopsis) (protein, UniProt O82289 1-568)
chain: MEAKIVKVSDSSYKDGLGKKRKHPGNYTPYDSGRSYAKLQWVLSPNSSTQKLEKRRNLDGENKVIVSENHVEKSLVRYFSYYKKTGVPKRVMFHENGEWIDLPDHILCDIRNDLEAKRATIEFNWCGRHFLLDFLHMYRLDLETGVKTQLAWIDIAGKCFFPETFDTLERDGCHHIRGEDPEQHDQREIKLHIEIDVNSGELPRLNLNVVTDESGDNMDDFQAVQRSSNGPNDEASEDSCSRELDDAVEKWDKTETDRFSGVKPAEEELDKDAVKQMFALGAATLGHVESLDVYQFSSEIAKARLSLFQKQADITKKHRGDANIRYAWVPAKKEVLSAVMMHGLGVGGAFIKKSMYGVGVHAANCPYFSARYCDIDDNGVRHMVLCRVIMGNMEPLRGDNTQYFTGGEEYDNGVDDVESPKHYLIWNMNMNTHIYPEFVVSFKLSIPNAEGNILPTTQSRHESSGLTLEGPKGSPSNEPGRVSNGGSGSEKNSSSSRRPRSPIMPFPLLFKAISSKIARKDMDLIIAGYQELREKKVSRKEFYKTLSMIVGDDDLLISTITGLQRSLG

Biological target: T1, RCD1 GFP:WWE-linker fusion protein (from Arabidopsis) (Arabidopsis)
Experiment: affinity purification with mass spectrometry

binding, binds:
MUT9-like kinase 1 (enzyme), MUT9-like kinase 2 (enzyme), MUT9-like kinase 3 (enzyme), MUT9-like kinase 4 (enzyme), B1
